Experimental data: PubChem BioAssay AID504786 (Drosophila RNAi Screening Center, 2011)
The screen tested about 21,000 reagents; below is an unselected part of those that have a named target and a result. 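Primary screen; positive scores mean lost reporter signal, so the sign may be inverted from the usual convention.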 No sequences are given here.

- Purpose: 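Positive regulators of HIF-driven reporter output in Drosophila cells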 (primary screen)
- System: Drosophila S2 cells with a stable HIF luciferase reporter
- Knock-down reagent: long dsRNA against Drosophila genes, about 0.2 µg dsRNA per well of a 384-well plate
- Duration: three days of knock-down, then 20 h of DFO before reading
- Conditions: desferrioxamine (DFO) at 100 µM, an iron chelator that mimics hypoxia, for 20 h
- Measured: 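HIF reporter luminescence in cells given 100 µM DFO for 20 h, using the mouse ldh-a hypoxia-response element, scored as per-plate z-scores; higher means greater loss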
- Direction: z-score: higher = stronger loss of HIF reporter signal

gene,amplicon,"z-score, replicate 1","z-score, replicate 2","z-score, replicate 3","z-score, replicate 4"
bves,DRSC20520,-0.4,-0.7,,
bves,DRSC20554,-0.4,-0.3,,
bves,DRSC20555,-0.5,-0.3,,
GEFmeso (Guanine nucleotide exchange factor in mesoderm),DRSC06748,-0.3,-0.2,,
GEFmeso (Guanine nucleotide exchange factor in mesoderm),DRSC06940,0,0.1,,
CG4622,DRSC04479,0.1,0.2,,
CG31643,DRSC00906,0.1,0.1,,
lbl (ladybird late),DRSC16986,0.5,-0.1,,
CG13585,DRSC04221,-0.3,-0.2,,
CG15611,DRSC06563,-0.2,-0.2,,
CG15611,DRSC06564,0.1,0,,
Dus1 (Dihydrouridine synthase 1),DRSC00623,-0.1,-0.4,,
omd (oocyte maintenance defects),DRSC16507,0.7,0.4,,
CG4617,DRSC18377,-0.4,-0.3,,
CG17024 (retired record),DRSC02562,-0.2,-0.4,,
CG18284,DRSC02661,-0.2,-0.2,,
CG18284,DRSC20756,0.1,-0.3,,
HGTX,DRSC09319,0.3,0,,
HGTX,DRSC11181,0,0.2,,
FBXO11 (F-box protein 11),DRSC16497,-0.4,-0.1,,
RpL37-1 (Ribosomal protein L37-1),DRSC20149,-0.2,1.2,0.2,-0.3
rho-5 (rhomboid-5),DRSC02847,-0.4,-0.2,,
CG4691,DRSC01950,-0.2,-0.2,,
hkb (huckebein),DRSC12377,-0.3,-0.6,,
CG34288,DRSC13564,-0.6,0.1,,
CG12481,DRSC19461,-0.3,0,,
Datp (Diadenosine tetraphosphatase),DRSC01102,-0.3,-0.3,,
CG17732,DRSC10283,-0.2,-0.2,,
CG17646,DRSC00507,-0.2,-0.3,,
par-1,DRSC05792,1.3,2.7,,
par-1,DRSC06098,-0.1,-0.2,,
par-1,DRSC06616,0,-0.3,,
par-1,DRSC07660,1.5,1.6,,
par-1,DRSC07661,-0.1,-0.3,,
CG11345,DRSC08176,0,-0.5,,
CG1812,DRSC20557,-0.3,-1,,
CG10681,DRSC09777,-0.4,-0.3,,
"Ccz1 (Caffeine, calcium, zinc sensitivity 1)",DRSC08439,-0.1,0.1,,
CG11018,DRSC06024,-0.3,-0.4,,
CG31883,DRSC02561,-0.3,-0.9,,
Ir75c (Ionotropic receptor 75c),DRSC10190,-0.2,-1.6,,
Cyp301a1 (Cytochrome P450 301a1),DRSC07365,-0.2,-0.4,,
Syngr (Synaptogyrin),DRSC06003,-0.1,0.5,,
CG30340,DRSC05167,-0.1,-0.1,,
Cyp4d1 (Cytochrome P450 4d1),DRSC17694,-0.1,-0.3,,
Cyp4d1 (Cytochrome P450 4d1),DRSC18456,-0.2,-0.2,,
CG13403,DRSC19535,-0.1,0.1,,
Stam (Signal transducing adaptor molecule),DRSC03444,2.2,2.6,,
Septin1 (Septin 1),DRSC20573,0.1,0.1,,
CG8117,DRSC20082,-0.4,0,,
inaC (inactivation no afterpotential C),DRSC07632,-0.3,-0.3,,
Ip6k (Inositol hexakisphosphate kinase),DRSC04054,0,-0.1,,
peng (penguin),DRSC20583,0.2,0.3,,
ko (knockout),DRSC11893,-0.3,-0.1,,
nub (nubbin),DRSC01260,-0.3,-0.4,,
nub (nubbin),DRSC02498,-0.2,-0.4,,
nub (nubbin),DRSC02499,-0.2,-0.3,,
nub (nubbin),DRSC03583,-0.3,-0.9,,
Peritrophin-A (Peritrophin A),DRSC20570,-0.3,-0.7,,
hpo (hippo),DRSC06065,-0.2,-0.7,,
Cyp6a20 (Cytochrome P450 6a20),DRSC07380,-0.3,-0.3,,
CG11426,DRSC11658,-0.2,-0.1,,
witty (without maturity),DRSC02378,-0.2,-0.2,,
Hsf (Heat shock factor),DRSC07443,-0.2,-0.4,,
Rph (Rabphilin),DRSC17790,-0.3,-0.2,,
CG16888,DRSC02541,0,-0.1,,
brm (brahma),DRSC11330,9.1,7.8,,
scpr-B (SCP-containing protein B),DRSC15200,-0.3,-0.3,,
CG14757,DRSC06492,-0.4,-0.6,,
l(2)37Cd (lethal (2) 37Cd),DRSC02069,-0.3,-0.2,,
tok (tolkin),DRSC17087,-0.2,-0.5,,
CG1314,DRSC20495,-0.4,-0.4,,
Spt6,DRSC18836,4.8,4,,
CG15071,DRSC06504,-0.2,-0.4,,
CG8300,DRSC18426,-0.4,-0.2,,
Vps35 (Vacuolar protein sorting 35),DRSC04519,-0.1,0,,
bdl (borderless),DRSC00271,-0.3,-0.3,,
CG42735 (retired record),DRSC00921,0.3,-0.2,,
Rrp6,DRSC16223,5.6,4.2,,
Tom (Twin of m4),DRSC11306,-0.1,-0.2,,
mthl1 (methuselah-like 1),DRSC19905,-0.2,-0.3,,
CG9483,DRSC03226,-0.4,-0.2,,
Rae1,DRSC04577,0.5,0.4,,

In a second layout: entries from further up.
Rph (Rabphilin) [DRSC17790]
- z-score, replicate 1: -0.3
- z-score, replicate 2: -0.2

CG16888 [DRSC02541]
- z-score, replicate 1: 0
- z-score, replicate 2: -0.1

brm (brahma) [DRSC11330]
- z-score, replicate 1: 9.1
- z-score, replicate 2: 7.8

scpr-B (SCP-containing protein B) [DRSC15200]
- z-score, replicate 1: -0.3
- z-score, replicate 2: -0.3

CG14757 [DRSC06492]
- z-score, replicate 1: -0.4
- z-score, replicate 2: -0.6

l(2)37Cd (lethal (2) 37Cd) [DRSC02069]
- z-score, replicate 1: -0.3
- z-score, replicate 2: -0.2

tok (tolkin) [DRSC17087]
- z-score, replicate 1: -0.2
- z-score, replicate 2: -0.5

CG1314 [DRSC20495]
- z-score, replicate 1: -0.4
- z-score, replicate 2: -0.4

Spt6 [DRSC18836]
- z-score, replicate 1: 4.8
- z-score, replicate 2: 4

CG15071 [DRSC06504]
- z-score, replicate 1: -0.2
- z-score, replicate 2: -0.4

CG8300 [DRSC18426]
- z-score, replicate 1: -0.4
- z-score, replicate 2: -0.2

Vps35 (Vacuolar protein sorting 35) [DRSC04519]
- z-score, replicate 1: -0.1
- z-score, replicate 2: 0

bdl (borderless) [DRSC00271]
- z-score, replicate 1: -0.3
- z-score, replicate 2: -0.3
